Test results taken from the supplement of paper PMC8728848.
The list shows a part of the results.

Legend:
Experiment in all cases: glycan array binding signal (z-score within array); higher = stronger binding
Conditions in all cases: glycan notation: IUPAC condensed, linker removed
[1] = target: Gal(b1-4)GlcNAc(a1-6)Gal(b1-4)GlcNAc
Summary of the method: (§1)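 Arrays were curated from the Consortium for Functional Glycomics database, 3228 in total, and kept only where the protein sequence was available. Binding is expressed as a within-array Z-score. This score was averaged across arrays of the same protein sequence at different concentrations or buffers and across linkers, and negative values can be read as non-binding.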

[2] = target: Gal(b1-4)GlcNAc(b1-2)Man(a1-3)Man(b1-4)GlcNAc(b1-4)GlcNAc
Summary of the method: as §1

[3] = target: Gal(b1-4)GlcNAc(b1-2)Man(a1-3)[Gal(b1-4)GlcNAc(b1-2)Man(a1-6)]Man(b1-4)GlcNAc(b1-4)GlcNAc
Summary of the method: as §1

[4] = target: Gal(b1-4)GlcNAc(b1-2)Man(a1-3)[Gal(b1-4)GlcNAc(b1-2)Man(a1-6)]Man(b1-4)GlcNAc(b1-4)[Fuc(a1-6)]GlcNAc
Summary of the method: as §1

[5] = target: Gal(b1-4)GlcNAc(b1-2)Man(a1-3)[Man(a1-6)]Man(b1-4)GlcNAc(b1-4)GlcNAc
Summary of the method: as §1

[6] = target: Gal(b1-4)GlcNAc(b1-2)Man(a1-6)Man(b1-4)GlcNAc(b1-4)GlcNAc
Summary of the method: as §1

[7] = target: Gal(b1-4)GlcNAc(b1-2)Man(a1-6)[Man(a1-3)]Man(b1-4)GlcNAc(b1-4)GlcNAc
Summary of the method: as §1

[8] = target: Gal(b1-4)GlcNAc(b1-2)[Gal(b1-4)GlcNAc(b1-4)]Man(a1-3)[Gal(b1-4)GlcNAc(b1-2)Man(a1-6)]Man(b1-4)GlcNAc(b1-4)GlcNAc
Summary of the method: as §1

[9] = target: Gal(b1-4)GlcNAc(b1-3)Gal(b1-3)GlcNAc
Summary of the method: as §1

[10] = target: Gal(b1-4)GlcNAc(b1-3)Gal(b1-4)Glc
Summary of the method: as §1

[11] = target: Gal(b1-4)GlcNAc(b1-3)Gal(b1-4)GlcNAc
Summary of the method: as §1

[12] = target: Gal(b1-4)GlcNAc(b1-3)Gal(b1-4)GlcNAc(b1-3)Gal(b1-4)GlcNAc
Summary of the method: as §1

[13] = target: Gal(b1-4)GlcNAc(b1-3)Gal(b1-4)[Fuc(a1-3)]GlcNAc(b1-3)Gal(b1-4)[Fuc(a1-3)]GlcNAc
Summary of the method: as §1

[14] = target: Gal(b1-4)GlcNAc(b1-3)GalNAc
Summary of the method: as §1

[15] = target: Gal(b1-4)GlcNAc(b1-3)[Gal(b1-4)GlcNAc(b1-6)]Gal(b1-4)GlcNAc
Summary of the method: as §1

[16] = target: Gal(b1-4)GlcNAc(b1-3)[GlcNAc(b1-6)]Gal(b1-4)GlcNAc
Summary of the method: as §1

[17] = target: Gal(b1-4)GlcNAc(b1-6)Gal(b1-4)GlcNAc
Summary of the method: as §1

[18] = target: Gal(b1-4)GlcNAc(b1-6)Gal(b1-4)GlcNAc(b1-6)GalNAc
Summary of the method: as §1

[19] = target: Gal(b1-4)GlcNAc(b1-6)GalNAc
Summary of the method: as §1

[20] = target: Gal(b1-4)GlcNAc(b1-6)[Gal(b1-3)]GalNAc
Summary of the method: as §1

Gal3S(b1-3)GalNAc = target: Gal3S(b1-3)GalNAc
Summary of the method: as §1

Gal3S(b1-3)GlcNAc = target: Gal3S(b1-3)GlcNAc
Summary of the method: as §1

[21] = target: Gal3S(b1-3)[Fuc(a1-4)]GlcNAc
Summary of the method: as §1

Gal3S(b1-4)Glc = target: Gal3S(b1-4)Glc
Summary of the method: as §1

Gal3S(b1-4)Glc6S = target: Gal3S(b1-4)Glc6S
Summary of the method: as §1

Gal3S(b1-4)GlcNAc = target: Gal3S(b1-4)GlcNAc
Summary of the method: as §1

Gal3S(b1-4)GlcNAc6S = target: Gal3S(b1-4)GlcNAc6S
Summary of the method: as §1

[22] = target: Gal3S(b1-4)[Fuc(a1-3)]Glc
Summary of the method: as §1

Gal3S4S(b1-4)GlcNAc = target: Gal3S4S(b1-4)GlcNAc
Summary of the method: as §1

Gal3S6S(b1-4)GlcNAc = target: Gal3S6S(b1-4)GlcNAc
Summary of the method: as §1

Gal3S6S(b1-4)GlcNAc6S = target: Gal3S6S(b1-4)GlcNAc6S
Summary of the method: as §1

Gal4S(b1-4)GlcNAc = target: Gal4S(b1-4)GlcNAc
Summary of the method: as §1

Gal4S6S(b1-4)GlcNAc = target: Gal4S6S(b1-4)GlcNAc
Summary of the method: as §1

Gal6S(b1-4)Glc = target: Gal6S(b1-4)Glc
Summary of the method: as §1

Gal6S(b1-4)Glc6S = target: Gal6S(b1-4)Glc6S
Summary of the method: as §1

Gal6S(b1-4)GlcNAc = target: Gal6S(b1-4)GlcNAc
Summary of the method: as §1

Gal6S(b1-4)GlcNAc6S = target: Gal6S(b1-4)GlcNAc6S
Summary of the method: as §1

B1: HHL-2 (Homo sapiens), P07307 (protein)
chain: MAKDFQDIQQLSSEENDHPFHQGEGPGTRRLNPRRGNPFLKGPPPAQPLAQRLCSMVCFSLLALSFNILLLVVICVTGSQSEGHRGAQLQAELRSLKEAFSNFSSSTLTEVQAISTHGGSVGDKITSLGAKLEKQQQDLKADHDALLFHLKHFPVDLRFVACQMELLHSNGSQRTCCPVNWVEHQGSCYWFSHSGKAWAEAEKYCQLENAHLVVINSWEEQKFIVQHTNPFNTWIGLTDSDGSWKWVDGTDYRHNYKNWAVTQPDNWHGHELGGSEDCVEVQPDGRWNDDFCLQVYRWVCEKRRNATGEVA
- glycan array binding signal (z-score) [1]: 0.183
- glycan array binding signal (z-score) [2]: -0.675
- glycan array binding signal (z-score) [3]: -0.276
- glycan array binding signal (z-score) [4]: -0.47
- glycan array binding signal (z-score) [5]: -0.542
- glycan array binding signal (z-score) [6]: -0.522
- glycan array binding signal (z-score) [7]: -0.243
- glycan array binding signal (z-score) [8]: -0.447
- glycan array binding signal (z-score) [9]: -0.728
- glycan array binding signal (z-score) [10]: -0.211
- glycan array binding signal (z-score) [11]: -0.474
- glycan array binding signal (z-score) [12]: -0.643
- glycan array binding signal (z-score) [13]: -0.686
- glycan array binding signal (z-score) [14]: -0.29
- glycan array binding signal (z-score) [15]: -0.55
- glycan array binding signal (z-score) [16]: -0.539
- glycan array binding signal (z-score) [17]: 0.683
- glycan array binding signal (z-score) [18]: -0.077
- glycan array binding signal (z-score) [19]: -0.588
- glycan array binding signal (z-score) [20]: -0.583
- glycan array binding signal (z-score) (Gal3S(b1-3)GalNAc): 0.269
- glycan array binding signal (z-score) (Gal3S(b1-3)GlcNAc): 2.04
- glycan array binding signal (z-score) [21]: 2.62
- glycan array binding signal (z-score) (Gal3S(b1-4)Glc): -0.798
- glycan array binding signal (z-score) (Gal3S(b1-4)Glc6S): 1.08
- glycan array binding signal (z-score) (Gal3S(b1-4)GlcNAc): -0.744
- glycan array binding signal (z-score) (Gal3S(b1-4)GlcNAc6S): 0.161
- glycan array binding signal (z-score) [22]: 0.929
- glycan array binding signal (z-score) (Gal3S4S(b1-4)GlcNAc): 1.94
- glycan array binding signal (z-score) (Gal3S6S(b1-4)GlcNAc): -0.306
- glycan array binding signal (z-score) (Gal3S6S(b1-4)GlcNAc6S): 1
- glycan array binding signal (z-score) (Gal4S(b1-4)GlcNAc): 0.361
- glycan array binding signal (z-score) (Gal4S6S(b1-4)GlcNAc): 0.284
- glycan array binding signal (z-score) (Gal6S(b1-4)Glc): 1.35
- glycan array binding signal (z-score) (Gal6S(b1-4)Glc6S): 1.64
- glycan array binding signal (z-score) (Gal6S(b1-4)GlcNAc): -0.519
- glycan array binding signal (z-score) (Gal6S(b1-4)GlcNAc6S): 3.54
